Assay results published in BindingDB's records for doi:10.1016/j.ejmech.2008.09.027 (Chulalongkorn University, 2009).

Protein sequences, listed by entry. Tags and fused reporters are not part of them. Lines headed by an entry give the natural chain unless they say otherwise; changes in a name come on top.
UniProt P30291: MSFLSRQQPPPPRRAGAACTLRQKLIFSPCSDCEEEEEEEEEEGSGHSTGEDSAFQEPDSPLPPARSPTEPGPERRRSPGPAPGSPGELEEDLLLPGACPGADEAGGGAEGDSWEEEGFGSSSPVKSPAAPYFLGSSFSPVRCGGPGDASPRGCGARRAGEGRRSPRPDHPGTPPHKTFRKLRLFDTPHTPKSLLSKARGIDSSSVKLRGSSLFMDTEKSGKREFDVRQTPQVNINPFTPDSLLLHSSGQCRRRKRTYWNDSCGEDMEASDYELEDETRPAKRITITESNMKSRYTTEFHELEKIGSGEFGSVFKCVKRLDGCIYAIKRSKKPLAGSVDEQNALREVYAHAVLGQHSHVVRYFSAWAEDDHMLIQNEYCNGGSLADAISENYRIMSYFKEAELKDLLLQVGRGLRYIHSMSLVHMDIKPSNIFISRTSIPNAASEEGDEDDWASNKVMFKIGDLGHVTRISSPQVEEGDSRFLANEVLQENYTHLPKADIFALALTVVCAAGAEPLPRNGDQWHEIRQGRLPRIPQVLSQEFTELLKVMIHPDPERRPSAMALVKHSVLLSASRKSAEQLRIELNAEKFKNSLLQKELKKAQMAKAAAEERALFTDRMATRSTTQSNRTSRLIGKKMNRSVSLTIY

Target: Wee1-like protein kinase (Homo sapiens, UniProt P30291)

## Nc1cccc(-c2cc3[nH]c4ccc(O)cc4c3c3c2C(=O)NC3=O)c1Cl [4-(3-amino-2-chlorophenyl)-9-hydroxypyrrolo[3,4-c]carbazole-1,3(2H,6H)-dione]
  IC50: 12 nM
